Measured values reported in US20200360400A1, “COMPOSITIONS AND METHODS FOR THE TREATMENT OF ADDICTION, PSYCHIATRIC DISORDERS, AND NEURODEGENERATIVE DISEASE” (Embera NeuroTherapeutics, Inc., priority 2017, published 2020).

Key:
[1] = Cocaine interaction crossover study: pharmacokinetics; settings: for AUC(0-inf): human, in vivo

For `O=C1Nc2ccc(Cl)cc2C(c2ccccc2)=NC1O` (stereo not drawn) [oxazepam], the “plasma concentration in the presence of cocaine” value (effect of cocaine on the drug's plasma concentration) was “did not affect”, the “influence on plasma concentration of the other drug” value (metyrapone and oxazepam given together, ip) was “did not influence” and the Cmax ([1]; EMB-001 (ERL-001)) was 653 ± 197 ng/mL. The Cmax ([1]; EMB-001 + Cocaine (ERL-002)) was 602 ± 183 ng/mL, the AUC(0-inf) ([1]; EMB-001 (ERL-001)) was 6160 ng·h/mL and the AUC(0-inf) ([1]; EMB-001 + Cocaine (ERL-002)) was 6140 ng·h/mL.
